Results: paper PMC4176175
For at least one entry, the source does not settle the construct or the ends of the probe. At least one verdict rests on a figure or table, not on a statement of the authors.

Chains of the proteins cited; added tags and fusions are not shown. A line that says so, or that is headed by a name, gives the form on record, which may keep a tag or linker.
human Ku70 WT + human Ku80 WT, one chain, as listed by the source, chain 2 of 2: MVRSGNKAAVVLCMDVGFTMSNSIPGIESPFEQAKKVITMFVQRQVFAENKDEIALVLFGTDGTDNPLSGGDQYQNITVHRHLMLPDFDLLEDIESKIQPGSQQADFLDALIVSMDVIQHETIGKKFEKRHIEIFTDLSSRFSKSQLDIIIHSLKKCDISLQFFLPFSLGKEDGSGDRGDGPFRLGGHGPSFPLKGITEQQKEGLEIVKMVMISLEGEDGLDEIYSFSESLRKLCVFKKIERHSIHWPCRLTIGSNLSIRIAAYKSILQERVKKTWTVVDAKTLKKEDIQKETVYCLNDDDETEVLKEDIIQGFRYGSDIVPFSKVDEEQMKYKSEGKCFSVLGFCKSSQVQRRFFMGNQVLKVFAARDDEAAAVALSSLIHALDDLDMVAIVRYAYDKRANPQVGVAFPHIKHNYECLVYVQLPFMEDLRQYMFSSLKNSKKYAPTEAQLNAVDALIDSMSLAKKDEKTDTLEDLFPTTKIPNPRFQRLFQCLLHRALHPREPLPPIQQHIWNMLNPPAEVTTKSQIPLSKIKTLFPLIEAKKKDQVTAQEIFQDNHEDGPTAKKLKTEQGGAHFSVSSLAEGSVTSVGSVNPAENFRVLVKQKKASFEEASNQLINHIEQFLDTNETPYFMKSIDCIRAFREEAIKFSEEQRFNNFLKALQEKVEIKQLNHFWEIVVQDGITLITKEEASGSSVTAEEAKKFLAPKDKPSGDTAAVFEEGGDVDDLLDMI
human Ku70 WT + human Ku80 WT, one chain, as listed by the source, chain 1 of 2: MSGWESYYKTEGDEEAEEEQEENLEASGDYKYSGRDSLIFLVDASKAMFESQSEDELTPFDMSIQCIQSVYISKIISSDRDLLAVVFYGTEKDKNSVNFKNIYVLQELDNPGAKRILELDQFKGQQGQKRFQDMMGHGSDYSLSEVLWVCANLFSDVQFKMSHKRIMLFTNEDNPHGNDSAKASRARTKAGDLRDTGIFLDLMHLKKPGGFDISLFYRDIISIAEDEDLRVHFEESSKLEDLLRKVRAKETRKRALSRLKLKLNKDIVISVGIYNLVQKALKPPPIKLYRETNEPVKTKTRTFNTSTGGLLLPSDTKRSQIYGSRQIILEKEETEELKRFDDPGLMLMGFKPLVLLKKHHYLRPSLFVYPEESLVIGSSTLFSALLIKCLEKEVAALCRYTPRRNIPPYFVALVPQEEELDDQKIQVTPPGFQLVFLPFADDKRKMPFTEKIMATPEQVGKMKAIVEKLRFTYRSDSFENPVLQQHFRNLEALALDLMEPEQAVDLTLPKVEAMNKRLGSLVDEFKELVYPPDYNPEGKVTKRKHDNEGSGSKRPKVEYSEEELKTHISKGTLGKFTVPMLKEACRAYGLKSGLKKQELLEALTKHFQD

System: human Ku70 WT + human Ku80 WT
Test: EMSA
Details: 1 nM Ku, 1 nM DNA, 15 min, deoxyuridine at position 2 of strand 1 (no UDG treatment for EMSA), 5' phosphate on strand 1, 5' biotin-TEG on strand 2, EMSA: 1 nM Ku with 1 nM radiolabeled 30 bp DNA, no streptavidin/UDG, recombinant protein, protein details: C-terminal His6, label: 3' 32P-cordycepin on strand 1

## GUGGAAATCAAACGTAAGTAGAATCCAAAGTCT / TAGACTTTGGATTCTACTTACGTTTGATTTC [30 bp EMSA substrate]
  binding result: binds
